# Measurements from paper PMC7819943, “Rice protein-binding microarrays: a tool to detect cis-acting elements near promoter regions in rice”.
# Chains of the proteins cited; added tags and fusions are not shown.
# UniProt Q0JBA9, entry or part of it: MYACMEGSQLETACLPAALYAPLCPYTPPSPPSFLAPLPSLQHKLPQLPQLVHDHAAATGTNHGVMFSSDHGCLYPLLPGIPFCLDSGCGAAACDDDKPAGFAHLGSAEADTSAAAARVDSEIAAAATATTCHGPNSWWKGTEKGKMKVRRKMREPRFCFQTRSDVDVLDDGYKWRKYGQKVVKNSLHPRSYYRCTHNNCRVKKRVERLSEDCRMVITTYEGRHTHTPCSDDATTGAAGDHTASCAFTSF
# The other results are listed elsewhere or left out.
# Molecular target: OsWRKY34 (Oryza sativa, UniProt Q0JBA9 1-250)
# Experiment: protein-binding microarray (RPBM); PBS, 2% BSA, 51.3 ng/ul salmon testes DNA, 50 uM zinc acetate, 200 nM TF, 25 C, 1 h; high values mean tight binding
# Conditions: protein: recombinant; tags: N-terminal polyhistidine and DsRed monomer fusion (pET32a); label: CyDye5-dUTP incorporated in the synthesized complementary strand; 3' TTTTT single-stranded linker to array surface; dsDNA, one strand shown
# Outline: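 The binding signal for each feature is its fluorescence intensity in arbitrary units. An Axon 4000B scanner was used to read a custom Agilent array that had been made double-stranded with Cy5-dUTP primer extension, blocked with 2% BSA, incubated at 25 °C for 1 h with 200 nM protein in PBS, 2% BSA, salmon testes DNA and 50 µM zinc acetate, and washed. The protein was an N-terminal polyhistidine–DsRed transcription factor fusion from E. coli BL21-CodonPlus, purified on Ni–NTA.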
row,Sequence,binding signal
1,ATCGTCGAGTGTACTAGTAGTAGGTTAGTGGTGGCTGGGTCGGAGTCACCTAGTGCAG,8660 fluorescence intensity (a.u.)
2,GTCCGATCATCTCACGTGGCATCTCGAAGCGGCCGCATTACGGAGTCACCTAGTGCAG,8140 fluorescence intensity (a.u.)
3,CTCTTACATGACTCCTTCCTTCTCTTCTTTTTCTCATTCCCGGAGTCACCTAGTGCAG,14100 fluorescence intensity (a.u.)
4,TGGAGGGGTGGGGAAGAAGAGGCTGACGCGTGGGGCCCATCGGAGTCACCTAGTGCAG,9780 fluorescence intensity (a.u.)
5,ATGGTTCTTATCACTCTGCTATTACCTATTATTGCTTGTTCGGAGTCACCTAGTGCAG,13600 fluorescence intensity (a.u.)
6,CATCCATCATATCGCCTCGTCGATCGTCTCCACCTTTCTTCGGAGTCACCTAGTGCAG,8030 fluorescence intensity (a.u.)
7,AATCAAACTTGAAATTTCTTGCTCCTCAGTTTTCTAATTTCGGAGTCACCTAGTGCAG,10400 fluorescence intensity (a.u.)
8,GCCTCACCCCTAAACACCTAAATCCTAATCCATCCATTCCCGGAGTCACCTAGTGCAG,8540 fluorescence intensity (a.u.)
9,AGCGCTCTCTCTCTCTCTCTCTCTCTCGCATCGCGCGCAGCGGAGTCACCTAGTGCAG,9590 fluorescence intensity (a.u.)
10,CACCATGAAATCATCTTCGCTTATTTAATAGAGGATATCACGGAGTCACCTAGTGCAG,8450 fluorescence intensity (a.u.)
11,CGTTCGTAGCTTTTTTCCGTTGTCCCACACTTGAGAGTACCGGAGTCACCTAGTGCAG,9050 fluorescence intensity (a.u.)
12,GATTTAGGACATTCAGGGTTGTCGGGTGTGTTGAGCTCGGCGGAGTCACCTAGTGCAG,9820 fluorescence intensity (a.u.)
13,ACAGAGTACAGACACTACCATTAAAAAGTCAAAACGGGCCCGGAGTCACCTAGTGCAG,8670 fluorescence intensity (a.u.)
14,GATTCACAATGCGGCCTGCCACGCCAAGACTACTCGTGCTCGGAGTCACCTAGTGCAG,8680 fluorescence intensity (a.u.)
15,GCCGCCTTACACCCGGCCACCAGCTTGTTCGTCGCCGGCGCGGAGTCACCTAGTGCAG,8100 fluorescence intensity (a.u.)
16,GTGCTTACTATCCTCCGCCTGAGTCCCTGCATCGGTCGCGCGGAGTCACCTAGTGCAG,8130 fluorescence intensity (a.u.)
17,TTGATTTGTTTTCCTTTTGCATAATAACGCTCTGCTAGCTCGGAGTCACCTAGTGCAG,9520 fluorescence intensity (a.u.)
18,CATGCCTTGATTATTGTTTATCCCTTATTCCTTCGTAACCCGGAGTCACCTAGTGCAG,9800 fluorescence intensity (a.u.)
19,TCCTCCTGTCTCTGCCTCTGCTCGGCTAGTCTAGTGTACTCGGAGTCACCTAGTGCAG,8810 fluorescence intensity (a.u.)
20,CATCCACAAGTTCATCATATCCGTCGTCGTCTTCGTCTTCCGGAGTCACCTAGTGCAG,8290 fluorescence intensity (a.u.)
21,CTCGTATCCACTCGTGTCCAACTGTTCTTGTGTCTTTGTTCGGAGTCACCTAGTGCAG,10100 fluorescence intensity (a.u.)

row,Sequence,binding signal
1,GTTTCATAATGTAAGATTTTCTAGCATTACCCATATTCATCGGAGTCACCTAGTGCAG,8160 fluorescence intensity (a.u.)
2,CCATGGTGTTAATATAATCATTCGTTGACCAGAATTGAGGCGGAGTCACCTAGTGCAG,16100 fluorescence intensity (a.u.)
3,GTTCCTTTTTTTTTTTCAAAAAACGTTACATTGAATCTTTCGGAGTCACCTAGTGCAG,8840 fluorescence intensity (a.u.)
4,TCTTTTCCTATTACGTGTCTTTTTTATCTCCTATATATACCGGAGTCACCTAGTGCAG,8230 fluorescence intensity (a.u.)
5,ACACTGATTTTTGGTCGTTCGTTTTATTTAAATCATTTTTCGGAGTCACCTAGTGCAG,14100 fluorescence intensity (a.u.)
6,TCCCTGGAAGAAATCTTGTGCCCATTTCGTCGTGCTTTGTCGGAGTCACCTAGTGCAG,8430 fluorescence intensity (a.u.)
7,CTCACCTACCCAATTGTCTCCTCCTCCTCAAATTTAGGTTCGGAGTCACCTAGTGCAG,8470 fluorescence intensity (a.u.)
8,AGGAGTCCGATTGTCTCAAGTTAGCATGCGATTTTTTTTACGGAGTCACCTAGTGCAG,8280 fluorescence intensity (a.u.)
9,AAATATTTTCCATTGTTTTGCTTATTTGGTTTGACCCAAACGGAGTCACCTAGTGCAG,13100 fluorescence intensity (a.u.)
10,GACCTTATGGACCTTATGGGTGATGATCTTATCTGATTCGCGGAGTCACCTAGTGCAG,9210 fluorescence intensity (a.u.)
11,TCTGTGCATCATTTTTTCCCTTTTTTTTTGTGGCTTTCCCCGGAGTCACCTAGTGCAG,8430 fluorescence intensity (a.u.)
12,GTGTTAGGTGCTGAGATTTTTGTACTTGCTTTATTATTTTCGGAGTCACCTAGTGCAG,8860 fluorescence intensity (a.u.)
13,TGTCTGTGTTTGTCCTGACTGATGATGCATTGACTCGTTGCGGAGTCACCTAGTGCAG,9770 fluorescence intensity (a.u.)
14,CACACGACACGCACCAACAGACCCCTTTCCGGCGCGGGCCCGGAGTCACCTAGTGCAG,8400 fluorescence intensity (a.u.)
15,TGGGTATTTCTCTTGATGCATGTTATTTCAGTTATTGATTCGGAGTCACCTAGTGCAG,10900 fluorescence intensity (a.u.)
16,CTCCCTCATCTTCTTTATCTTTTCTGCGCTGGGAGACTTTCGGAGTCACCTAGTGCAG,10400 fluorescence intensity (a.u.)
17,TCGGACATATTCTTTTTTTTTCCCGATTTTTCTTTTACCGCGGAGTCACCTAGTGCAG,9320 fluorescence intensity (a.u.)
18,GTTTCGTCTTCGAGAGCTCGACTTCACTCGCACCGTGTCCCGGAGTCACCTAGTGCAG,8950 fluorescence intensity (a.u.)
19,ACCACCCCACAGGCCCACACCCACACTCTCCCAGTCCCGCCGGAGTCACCTAGTGCAG,11200 fluorescence intensity (a.u.)
20,GCGCGCTGACCCGCTTGTACTCCTCCACCATGTTCCTCACCGGAGTCACCTAGTGCAG,8270 fluorescence intensity (a.u.)
21,ATGCCTACACACCACCACGCATGCACACCATCACACACATCGGAGTCACCTAGTGCAG,11600 fluorescence intensity (a.u.)

# Already shown: an excerpt of the list.
row,Sequence,binding signal
16,GTGCTTACTATCCTCCGCCTGAGTCCCTGCATCGGTCGCGCGGAGTCACCTAGTGCAG,8130 fluorescence intensity (a.u.)
17,TTGATTTGTTTTCCTTTTGCATAATAACGCTCTGCTAGCTCGGAGTCACCTAGTGCAG,9520 fluorescence intensity (a.u.)
18,CATGCCTTGATTATTGTTTATCCCTTATTCCTTCGTAACCCGGAGTCACCTAGTGCAG,9800 fluorescence intensity (a.u.)
19,TCCTCCTGTCTCTGCCTCTGCTCGGCTAGTCTAGTGTACTCGGAGTCACCTAGTGCAG,8810 fluorescence intensity (a.u.)
20,CATCCACAAGTTCATCATATCCGTCGTCGTCTTCGTCTTCCGGAGTCACCTAGTGCAG,8290 fluorescence intensity (a.u.)
21,CTCGTATCCACTCGTGTCCAACTGTTCTTGTGTCTTTGTTCGGAGTCACCTAGTGCAG,10100 fluorescence intensity (a.u.)
1,GTTTCATAATGTAAGATTTTCTAGCATTACCCATATTCATCGGAGTCACCTAGTGCAG,8160 fluorescence intensity (a.u.)
2,CCATGGTGTTAATATAATCATTCGTTGACCAGAATTGAGGCGGAGTCACCTAGTGCAG,16100 fluorescence intensity (a.u.)
